# Results of single-concentration screens

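Phenotypic screen: M. tuberculosis growth, glucose 7H9 medium, 3 days; the read-out is not stated. Compounds at 50 µM. The record gives no direction; compounds that gave an IC50 in retests scored well above the rest, so higher reads as more growth inhibition. Size under these conditions: about 69,000 compounds, about 760 of them at 50% or above in at least one test.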

Each number is a percent effect as filed.
The record does not define 0% and 100%; most values in the screen are far below 50% and negative numbers occur (in some assays of this library far below -100).
Compounds were drawn at random from those tested, without regard to their results.
Two or more numbers in one place are separate tests of the same structure; such repeats can differ widely.

structure,effect
Cc1ccc(N2CCC(N3C[C@@H](CN(C)C)[C@@H](CO)C3)CC2)cc1,9.999%
O=C(c1cc(C2CCCN(Cc3ccccn3)C2)no1)N1CCCC1 (stereo not given),11.45%
CCN(CC)C(=O)[C@@H]1C[C@H](N)CN1C(=O)c1cc2c([nH]c1=O)CCC2,-3.776% & 1.139%
N[C@H]1CN(C(=O)Cc2ccc(Cl)c(Cl)c2)C[C@@H]1C1CC1,6.069% & -22.17%
CCSCCC(=O)NC1CCN(C(C)c2ccccc2)CC1 (stereo not given),2.059% & -56.25%
CN(C)CCN(Cc1ccccc1)C(=O)C1=NNC(=O)CC1,7.088%
Cc1cc(Cl)ccc1S(=O)(=O)NCC(C)N1CCN(C)CC1 (stereo not given),-5.969% & 8.916%
CCc1nc(CNCC2CCCN2c2cccnn2)no1 (stereo not given),14.84%
Cc1cc(N2CCC(c3nccn3Cc3cscn3)CC2)ccn1,10%
Cn1c(NCCN2CCCCCC2)c(C#N)c(=O)n(C)c1=O,-26.19%
Cc1ccc2c(c1)c(CNC(=O)C1CCN(CC(N)=O)CC1)nn2C,-7.872%
O=C(c1ccc2nccn2c1)N(CCO)Cc1ccccc1F,-32.97%
CC(C)N1CC(C(=O)N2CCc3c(nc(CC4CC4)[nH]c3=O)C2)CC1=O (stereo not given),-9.684%
CC(C)Cc1cc(CNC(=O)C2CCCN(C(=O)N(C)C)C2)no1 (stereo not given),-20.83%
Cc1ccc(NC(=O)N(C)Cc2cnn(C)c2)c(C)c1,18.63%
CCN(Cc1ccncc1)c1cc(C2CCNCC2)nc(C)n1,0.3071%
CCCNC(=O)Cc1c(C)nc2c(c1C)c(=O)[nH]n2C,2.272% & 10.19%
Cc1cc(C(=O)NCc2ccnc(N(C)C)c2)c(C)o1,-18.17%
CCOc1ncnc2c1CCN(Cc1cccs1)CC2.O=C(O)C(F)(F)F,18.16% & -1.689%
Cc1ccc(F)c(S(=O)(=O)N2CCCC2c2ccncc2)c1 (stereo not given),-6.97%
O=C(NCCCn1cccn1)C1(c2ccccc2)CCOCC1,-7.151%
COc1cc(C(=O)NC(C)c2cccs2)cc2c1OCCO2 (stereo not given),-7.611%
CCc1nc(C)cc(N2CCCC(C(=O)c3ccc(OC)cc3C)C2)n1 (stereo not given),44.2%
Cc1cc(NCC(=O)N(C)Cc2cccs2)c(C(N)=O)cc1F,11.39%
CCOC(C)c1noc(CN(C)C(=O)C2C(C)(C)C2(C)C)n1 (stereo not given),20.89%
[H][C@]12CC[C@]([H])(CN(c3ccnc(SC)n3)C1)N(CC1CCC1)C2=O,-36.39%
CCNc1ncc(C(=O)NCCCc2ccncc2)cn1,9.996% & -5.804%
CNC(=O)C1Cn2ccnc2C2(CCN(Cc3ccncc3)CC2)O1.O=C(O)C(F)(F)F.O=C(O)C(F)(F)F.O=C(O)C(F)(F)F (stereo not given),-29.74%
Nc1nc2nc(C3CCCN(C(=O)c4cncs4)C3)ccc2s1 (stereo not given),10.57%
Cc1noc(-c2ccnc(N3CCCN(C4CCOCC4)CC3)c2)n1,-27.7%
CN(C)CCN(Cc1ccc(Cl)cc1)C(=O)c1ccncc1,-19.97% & -0.5757%
Cc1cnn(CC(C)NCc2csc(-c3ccsc3)n2)c1 (stereo not given),42.75%
NCC1(CN2CCOCC2)CCCCC1,9.895%
O=C(O)C(F)(F)F.[H][C@@]12CCCO[C@]1([H])[C@H](NS(C)(=O)=O)CN(Cc1ccco1)C2,-0.8154% & 18.37%
COc1cc(C2SC(C)=Nc3c2c(=O)[nH]n3C2CCCC2)ccc1O (stereo not given),-3.706%
Cl.NC(=O)C1CNCCN1C(=O)COc1ccccc1 (stereo not given),14.36%
Cc1cnn(CC2CCCCN2Cc2nc(-c3ccoc3)no2)c1 (stereo not given),20.31%
CCc1nc(C2CCCN(C(=O)c3c[nH]c(C(C)C)n3)C2)no1 (stereo not given),-9.177% & 2.415%
[H][C@]12C[C@@H](CN3CCCC3)N(C)[C@@]1([H])CCN(C(=O)c1cnccn1)C2,-9.971%
CS(=O)(=O)N1CCc2[nH]cnc2C12CCN(C(=O)c1cccnc1)CC2,-2.882%
[H][C@@]12CCN(c3ncccn3)[C@]1([H])CC[C@H](C(=O)N1CCCCO1)O2,21.63%
COc1cccc(CNC(=O)CN2CCCCC2Cn2cccn2)c1 (stereo not given),16.34%
CCn1cc(S(=O)(=O)N2CCN(S(=O)(=O)c3ccc(Br)s3)CC2)c(C)n1,9.412%
COCCS(=O)(=O)NCC(C)c1cccc(C)c1 (stereo not given),-7.841%
CCOc1ccc(Cl)c(C(=O)N2CCN(C(=O)c3ccoc3C)CC2)n1,-16.8%
O=C(NCCc1cccnc1)Nc1cc(C(F)(F)F)c[nH]c1=O,-15.19%
CCn1cc(C(=O)N2CCOC(c3nc(-c4cccs4)no3)C2)cn1 (stereo not given),4.9%
[H][C@@]12CN(Cc3cccc(F)c3)C[C@]1([H])OCCN2CC(=O)N(C)C,-7.857%
Cc1cc(-c2cnn(CCNC(=O)c3cnn(C)c3)c2C2CC2)on1,7.085%
COc1ccc(C(O)CN2CC(n3nc(C)cc3C)C2)cc1 (stereo not given),8.98%
O=C(O)C(F)(F)F.O=C(O)C(F)(F)F.[H][C@@]12CN(C(=O)c3ccnnc3)C[C@]1([H])OCCN2CCN1CCCC1,-4.825%
COCc1nc(C(=O)N2CCN(c3nccc(OC)n3)CC2)cs1,-0.2724% & 12.85%
Cc1nn(C)c(C)c1C1CCCN1Cc1nc2ccccc2c(=O)[nH]1 (stereo not given),-13.76%
CCS(=O)(=O)N1CCN(C(C)c2ccccc2OC)CC1 (stereo not given),0.6159% & 7.166%
CC(NC(=O)CN1C=Nc2ccccc2S1(=O)=O)C1CC1 (stereo not given),-70.56%
O=C(O)C(F)(F)F.O=C(O)C(F)(F)F.[H][C@@]12CCCO[C@]1([H])[C@@H](OCc1cccnc1)CN2c1nnc(C)s1,-32.15% & -11.35%
Cn1ncnc1-c1ccnc(NCCCc2ccncc2)n1,1.962%
CCc1ccc(CNC(=O)CCNS(=O)(=O)c2cn(C)c(C)n2)s1,-8.402%
O=C(Nc1ccccc1)N1CCC2(CC(=O)N(c3ccsc3)C2)C1 (stereo not given),-11.59%
CC(C)(NC(=O)Cc1ccccc1F)C(=O)O,-15.87%

7 of the entries, repeated:

structure,effect
[H][C@]12C[C@@H](CN3CCCC3)N(C)[C@@]1([H])CCN(C(=O)c1cnccn1)C2,-9.971%
CN(C)CCN(Cc1ccccc1)C(=O)C1=NNC(=O)CC1,7.088%
CCOC(C)c1noc(CN(C)C(=O)C2C(C)(C)C2(C)C)n1 (stereo not given),20.89%
[H][C@@]12CN(Cc3cccc(F)c3)C[C@]1([H])OCCN2CC(=O)N(C)C,-7.857%
COc1cc(C(=O)NC(C)c2cccs2)cc2c1OCCO2 (stereo not given),-7.611%
CCSCCC(=O)NC1CCN(C(C)c2ccccc2)CC1 (stereo not given),2.059% & -56.25%
CCOc1ccc(Cl)c(C(=O)N2CCN(C(=O)c3ccoc3C)CC2)n1,-16.8%

The values are deposited in ChEMBL (CHEMBL3988442, “University of Dundee, Small-Polar-MMV Screening Library” (2021)).